Experimental data published in patent US8426392B2, “Method for providing emergency contraception” (Laboratoire HRA-Pharma, priority 2009, dated 2013).
Where two headings read alike, the source gives them in different places. For part of these data: For at least one compound, name, drawing or mass did not settle the structure. Some results were stated once for a whole list of compounds, not compound by compound.

Legend:
[1] = Food interaction study: bioavailability of a single 30 mg oral dose of ulipristal acetate in fed and fasting states; conditions: fed compared with fasted
[2] = 1.5 mg levonorgestrel, cited from earlier work

Row | SMILES | increase in AUC (extent of absorption) when dosed with food [1] | pregnancy rate ([2]; intake 0 to 24 hrs after intercourse) | pregnancy rate ([2]; intake 48-72 hrs after intercourse) [%]
1 | CC(=O)O[C@]1(C(C)=O)CC[C@H]2[C@@H]3CCC4=CC(=O)CCC4=C3[C@@H](c3ccc(N(C)C)cc3)C[C@@]21C [ulipristal acetate, 17α-acetoxy-11β-[4-N,N-dimethylamino-phenyl)-19-norpregna-4,9-diene-3,20-dione] | 20-25% |  | 
2 | C#C[C@]1(O)CC[C@H]2[C@@H]3CCC4=CC(=O)CC[C@@H]4[C@H]3CC[C@@]21CC [levonorgestrel] |  | approximately 1.5% | ~2.6
